These are yes or no findings as the source states them, for the method shown. Some entries that bind do so weakly or less than the wild type.
Tests used:
[1] = target: T1, Rad21 (fission yeast (S. pombe)) (UniProt P30776); assay: cross-linking; SDA (NHS-diazirine) UV crosslinking with mass spectrometry (CLMS), gripping state: 200 nM cohesin, 200 nM Mis4-Ssl3, 200 nM 125 bp dsDNA, 0.5 mM ADP and 0.5 mM BeSO4 + 10 mM NaF, 32°C 20 min; both purified
T1 sequence: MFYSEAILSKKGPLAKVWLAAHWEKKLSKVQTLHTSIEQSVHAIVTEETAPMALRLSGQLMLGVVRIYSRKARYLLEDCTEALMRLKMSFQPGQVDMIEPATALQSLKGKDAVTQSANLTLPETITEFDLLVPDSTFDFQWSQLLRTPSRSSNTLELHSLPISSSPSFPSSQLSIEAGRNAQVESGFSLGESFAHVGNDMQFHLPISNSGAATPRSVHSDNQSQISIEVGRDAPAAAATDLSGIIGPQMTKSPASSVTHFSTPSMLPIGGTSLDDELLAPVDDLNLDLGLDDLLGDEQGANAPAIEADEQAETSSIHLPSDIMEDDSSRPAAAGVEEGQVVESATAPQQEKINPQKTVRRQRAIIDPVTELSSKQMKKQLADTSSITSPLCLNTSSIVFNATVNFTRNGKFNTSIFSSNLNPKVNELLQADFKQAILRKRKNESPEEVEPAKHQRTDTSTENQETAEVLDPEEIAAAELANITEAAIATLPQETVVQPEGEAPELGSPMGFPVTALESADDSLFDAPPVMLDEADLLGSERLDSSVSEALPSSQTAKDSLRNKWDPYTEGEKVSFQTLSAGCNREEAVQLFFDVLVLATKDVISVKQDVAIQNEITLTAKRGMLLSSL

[2] = target: T2, Psm1 (fission yeast (S. pombe)) (UniProt O94383); assay: cryo-EM structure; gripping state: cohesin tetramer, Mis4-Ssl3 and 125-bp linear dsDNA with ADP and BeSO4 + NaF (ADP·BeF3-), peak fractions of a sucrose gradient; 3.9 Å map of the cohesin core; both purified
T2 sequence: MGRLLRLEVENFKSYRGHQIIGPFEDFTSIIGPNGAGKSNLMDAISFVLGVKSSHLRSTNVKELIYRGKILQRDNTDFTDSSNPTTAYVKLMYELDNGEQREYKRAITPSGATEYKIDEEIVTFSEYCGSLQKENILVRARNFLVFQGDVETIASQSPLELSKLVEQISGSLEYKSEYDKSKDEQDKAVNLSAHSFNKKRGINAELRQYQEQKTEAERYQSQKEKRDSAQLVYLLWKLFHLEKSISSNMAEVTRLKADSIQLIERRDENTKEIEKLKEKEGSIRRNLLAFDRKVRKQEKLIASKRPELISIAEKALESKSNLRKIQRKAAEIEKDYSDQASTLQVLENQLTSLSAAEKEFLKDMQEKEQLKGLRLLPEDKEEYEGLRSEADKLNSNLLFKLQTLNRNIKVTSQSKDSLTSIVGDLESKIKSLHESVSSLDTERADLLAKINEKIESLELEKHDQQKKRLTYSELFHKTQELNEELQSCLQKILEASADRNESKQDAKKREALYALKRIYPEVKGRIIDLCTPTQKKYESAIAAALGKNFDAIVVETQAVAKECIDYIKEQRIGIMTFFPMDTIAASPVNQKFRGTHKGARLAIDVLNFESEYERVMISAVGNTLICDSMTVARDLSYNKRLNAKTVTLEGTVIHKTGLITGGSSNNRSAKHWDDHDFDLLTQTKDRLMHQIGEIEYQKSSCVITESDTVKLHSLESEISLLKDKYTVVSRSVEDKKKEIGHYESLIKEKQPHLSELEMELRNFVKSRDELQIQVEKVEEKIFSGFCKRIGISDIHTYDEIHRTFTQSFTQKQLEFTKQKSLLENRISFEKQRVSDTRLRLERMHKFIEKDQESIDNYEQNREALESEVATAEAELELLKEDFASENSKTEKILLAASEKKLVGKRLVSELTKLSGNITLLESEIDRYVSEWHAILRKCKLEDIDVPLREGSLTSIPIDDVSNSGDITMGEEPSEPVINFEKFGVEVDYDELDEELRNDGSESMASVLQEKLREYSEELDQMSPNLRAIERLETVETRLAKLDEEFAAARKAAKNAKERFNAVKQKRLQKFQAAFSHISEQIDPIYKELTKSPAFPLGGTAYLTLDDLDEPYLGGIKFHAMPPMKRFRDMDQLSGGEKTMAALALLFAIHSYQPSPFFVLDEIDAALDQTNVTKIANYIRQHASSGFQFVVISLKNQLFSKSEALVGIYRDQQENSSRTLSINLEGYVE

B1: Psc3 (natural protein, fission yeast (S. pombe), UniProt O13816 1-962, looked up)
chain: MSESVTTGSDDDGGDRESSPVMLSQSFDPMSSSSNSSSEENSDDDYEKTISSKKRHPRPNSKGVNVKRSRRNAIVEEDPQEEIFNNLFAFLLDQKVDTMDIAVSWFADYAKDNQSALANLINFILKCCGCNRAINVFDVQDQDSASATLSQIQLSVERTSTRDYPLNSKNLKFRNFRKRLTGLLSNFVSQLSIRNYLYNSTVFEDIMSWVVAMSSSTMRPIRHTATVFCLNIMTFLCEKSKELLNEHAIATKQLEKEEKRSRVNRNRINELNNSLGEIVKQQDTLTTYLNDYFDSVFVHRYRDVEPKIRVDCLQELGVWINTVPSIFFSGSYLRYLGWMLSDINTTVRLTVVKVLRKFFETDSFIGGLRHFSSRFKERILEMSCVDADIGVRVASIRLCNAMRTCGFLENSEILKVLKLILDINPRVQREAVLFLCKVVDESVNEKIDLWGEEDYILKAFSQTSLTTFSVHWIKFSQMCKLLEEVRLSYQSSFDYDTLLRIFQKNGNFITPITQALLNACEIDSIYQSWEDISNFVLFDNYTSTLKDPIDSILSFCKLNDFQESILLQLLSASIQTVCNNNFITPKTVHNKQAAETTNDQNKDKDLLYLNLLPYINSITERNSASPTLLHDSLRLLFSMDLTEMTDPQLSRHFELLINNLKKFFLTNNDLQIIQGCTILFLRLDSIPALKEDLKLLVTDICDQTVTEFLKNFGSFNIQDAVITKDEFVIFEACLTRIEGCTSLKDFSDYPEFDIIYERLVSLLSRVPNSYEDTLKFSAINTLQSLLFWFFLRKDNPADEEKKKDDETKVFNCLINIMNNDSSKILQLQAARTFLETVIMKEGVKASHYNDDNRVSEEHNFLKPQFLDALLKILEGWLYTYAKVGQFPFKRLTQASSPHTQISLDKNPLNRRLLEHVCCDLTSKLLIVVSLSNTITPEFSQQFCELRGHYGPKLSAIVDEFLN
notes: Psc3 (Scc3/STAG1/2), HEAT repeat subunit of fission yeast cohesin; Subunit of the wild-type tetramer; constructs from Murayama and Uhlmann, 2014; also called Psc3^Scc3/STAG1/2; Scc3; source: budding yeast (W303 background), galactose-induced, purified as part of the cohesin tetramer
With B1 the binding [1] was “binds”.

B2: Rad21 (protein, UniProt P30776 1-628)
chain: MFYSEAILSKKGPLAKVWLAAHWEKKLSKVQTLHTSIEQSVHAIVTEETAPMALRLSGQLMLGVVRIYSRKARYLLEDCTEALMRLKMSFQPGQVDMIEPATALQSLKGKDAVTQSANLTLPETITEFDLLVPDSTFDFQWSQLLRTPSRSSNTLELHSLPISSSPSFPSSQLSIEAGRNAQVESGFSLGESFAHVGNDMQFHLPISNSGAATPRSVHSDNQSQISIEVGRDAPAAAATDLSGIIGPQMTKSPASSVTHFSTPSMLPIGGTSLDDELLAPVDDLNLDLGLDDLLGDEQGANAPAIEADEQAETSSIHLPSDIMEDDSSRPAAAGVEEGQVVESATAPQQEKINPQKTVRRQRAIIDPVTELSSKQMKKQLADTSSITSPLCLNTSSIVFNATVNFTRNGKFNTSIFSSNLNPKVNELLQADFKQAILRKRKNESPEEVEPAKHQRTDTSTENQETAEVLDPEEIAAAELANITEAAIATLPQETVVQPEGEAPELGSPMGFPVTALESADDSLFDAPPVMLDEADLLGSERLDSSVSEALPSSQTAKDSLRNKWDPYTEGEKVSFQTLSAGCNREEAVQLFFDVLVLATKDVISVKQDVAIQNEITLTAKRGMLLSSL
In the case of B2, the binding [2] is reported as “binds”.
